According to CN102066974A, “用于蛋白、肽和其他分子的f-18标记的改进方法和组合物” (Immunomedics Inc, priority 2008, dated 2011):
At least one peptide structure holds a part that was inferred or is arguable (an end, a ring closure or a residue). Numbered stars: 1 amine (or outer) side, 2 acyl side, 3 side chain; on linkers, the order of the positions; unused ones are H or OH. Square brackets hold non-standard residues; d marks the D form. Side chains are listed from the residue outwards. Peptide text beside a SMILES is read from it. * marks the point of attachment. DTPA = O=C(O)CN(CCN(CC(=O)O)CC(=O)O)CCN(CC(=O)O)CC(=O)*; NH(2-(imidazol-4-yl)ethyl) = c1ncc(CCN*)[nH]1; Suc = O=C(CCC(=O)[*:2])[*:1]

Key:
[1] = Octanol-water partition coefficient; type: physicochemical; details: octanol/PBS
hMN-14x679 = test: Antibody binding of 18F-labelled peptide by size-exclusion HPLC; details: SE-HPLC
hMN-14x734 = test: Antibody binding of 18F-labelled peptide by size-exclusion HPLC (irrelevant bsMAb); details: SE-HPLC

| Compound | log P辛醇/水 [1] | binding to hMN-14x679 (hMN-14x679) | binding to irrelevant bispecific antibody hMN-14x734 (hMN-14x734) |
| --- | --- | --- | --- |
| C[C@@H](O)[C@@H]1NC(=O)[C@H](CCCCN)NC(=O)[C@@H](Cc2c[nH]c3ccccc23)NC(=O)[C@H](Cc2ccccc2)NC(=O)[C@@H](NC(=O)[C@@H](Cc2ccccc2)NC(=O)CN2CCN(CC(=O)O)CCN(CC(=O)O)CC2)CSSC[C@@H](C(=O)N[C@H](CO)[C@@H](C)O)NC1=O [Al18F-IMP 466] | -2.44±0.12 | – | – |
| C[C@@H](O)[C@@H]1NC(=O)[C@H](CCCCN)NC(=O)[C@@H](Cc2c[nH]c3ccccc23)NC(=O)[C@H](Cc2ccccc2)NC(=O)[C@@H](NC(=O)[C@@H](Cc2ccccc2)NC(=O)CN2CCN(CC(=O)O)CCN(CC(=O)O)CC2)CSSC[C@@H](C(=O)N[C@H](CO)[C@@H](C)O)NC1=O [68Ga-IMP 466, metal not drawn] | -3.79±0.07 | – | – |
| C[C@H](NC(=O)[C@H](CCC(N)=O)NC(=O)CN(CCN(CCN(CC(=O)O)CC(=O)O)CC(=O)O)CC(=O)O)C(=O)N[C@@H](CCCCNC(=O)CNC(=O)CCC(=O)NCCc1c[nH]cn1)C(=O)N[C@H](Cc1ccc(O)cc1)C(=O)N[C@@H](CCCCNC(=O)CNC(=O)CCC(=O)NCCc1c[nH]cn1)C(N)=O [IMP 272, DTPA-Gln-Ala-Lys(HSG)-D-Tyr-Lys(HSG)-NH2] ({DTPA}-QAK([Gly-Suc-NH(2-(imidazol-4-yl)ethyl)])[dY]K([Gly-Suc-NH(2-(imidazol-4-yl)ethyl)])-NH2) | – | 结合hMN-14x679 | 不结合 |
